Drawing on patent publication US20120039865A1, “IDENTIFICATION OF SORTILIN AS A NEURONAL RECEPTOR FOR THE FRONTOTEMPORAL DEMENTIA PROTEIN, PROGRANULIN” (Yale University, priority 2008, published 2012), this text covers binding for 2 substances.

Chains of the proteins cited; added tags and fusions are not shown. Lines headed by an entry give the natural chain unless they say otherwise; changes in a name come on top.
UniProt Q6PHU5: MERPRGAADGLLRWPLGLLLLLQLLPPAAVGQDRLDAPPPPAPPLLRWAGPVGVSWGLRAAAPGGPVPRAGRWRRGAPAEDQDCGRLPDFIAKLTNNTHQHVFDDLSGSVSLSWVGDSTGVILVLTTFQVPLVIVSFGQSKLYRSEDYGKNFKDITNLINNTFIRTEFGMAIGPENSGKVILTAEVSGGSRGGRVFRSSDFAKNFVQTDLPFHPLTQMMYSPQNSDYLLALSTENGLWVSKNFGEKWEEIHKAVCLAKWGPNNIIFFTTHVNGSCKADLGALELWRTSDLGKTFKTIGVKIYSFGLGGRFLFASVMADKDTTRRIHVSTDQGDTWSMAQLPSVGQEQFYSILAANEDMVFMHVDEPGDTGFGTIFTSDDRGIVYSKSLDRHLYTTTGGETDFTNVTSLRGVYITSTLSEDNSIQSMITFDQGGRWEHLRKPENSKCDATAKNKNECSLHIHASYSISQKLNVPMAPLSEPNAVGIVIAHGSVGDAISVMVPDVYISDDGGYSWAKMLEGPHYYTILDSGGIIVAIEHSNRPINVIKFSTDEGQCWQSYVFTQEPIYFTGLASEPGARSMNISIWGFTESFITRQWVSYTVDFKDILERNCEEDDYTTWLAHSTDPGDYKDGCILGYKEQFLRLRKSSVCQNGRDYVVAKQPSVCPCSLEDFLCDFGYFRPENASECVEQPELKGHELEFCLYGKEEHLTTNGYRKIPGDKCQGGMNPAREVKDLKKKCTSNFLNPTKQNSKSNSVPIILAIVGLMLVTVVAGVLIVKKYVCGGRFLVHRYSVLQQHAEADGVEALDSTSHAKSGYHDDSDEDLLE
UniProt P28799: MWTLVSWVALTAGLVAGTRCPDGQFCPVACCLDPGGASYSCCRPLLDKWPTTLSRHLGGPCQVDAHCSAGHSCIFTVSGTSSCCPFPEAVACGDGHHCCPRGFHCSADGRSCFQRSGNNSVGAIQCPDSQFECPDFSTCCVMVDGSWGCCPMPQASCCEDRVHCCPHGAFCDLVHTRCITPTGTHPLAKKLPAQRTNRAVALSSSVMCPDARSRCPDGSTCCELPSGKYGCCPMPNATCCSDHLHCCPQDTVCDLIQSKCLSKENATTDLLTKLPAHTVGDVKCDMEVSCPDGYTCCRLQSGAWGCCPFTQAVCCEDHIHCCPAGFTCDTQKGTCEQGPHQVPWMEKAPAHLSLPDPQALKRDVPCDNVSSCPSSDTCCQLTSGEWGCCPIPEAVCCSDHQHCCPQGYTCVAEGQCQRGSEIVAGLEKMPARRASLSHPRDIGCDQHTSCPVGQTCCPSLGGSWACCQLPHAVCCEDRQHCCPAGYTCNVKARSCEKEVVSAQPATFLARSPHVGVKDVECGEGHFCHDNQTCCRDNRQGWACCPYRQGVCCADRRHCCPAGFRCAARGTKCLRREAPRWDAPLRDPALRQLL

No constants are given. Whether binding was seen depends on the method and setting. For part of these data: In cells and extracts the contact can be indirect. Some entries that bind do so weakly or less than the wild type.

Test [1] addresses endogenous mouse sortilin (Sort1) of mouse brain lysate, mouse cortical neurons and mice in vivo (mouse) (UniProt Q6PHU5). In words: GST pull-down from mouse brain lysate, anti-sortilin immunoblot. In general terms: In western blotting, separated proteins are transferred to a membrane and probed.
Test [2] has as its target mouse sortilin-1 (Sort1; GenBank Accession No. NM 019972) expressed in COS-7 cells (mouse) (UniProt Q6PHU5). In words: displacement of 5 nM AP-PGRN from Sort1-transfected COS-7 cells by 100 nM untagged PGRN.
The target of test [3] is endogenous mouse sortilin (Sort1) of mouse brain lysate, mouse cortical neurons and mice in vivo (mouse) (UniProt Q6PHU5). Briefly: displacement of 5 nM AP-PGRN from mouse E17 cortical neurons by 100 nM unlabeled PGRN, AP staining.

For “glutathione S-transferase (GST) fused to the C-terminal segment of PGRN (amino acids 495 to the end) (from UniProt P28799 495-593)”, the binding result in test [1] is recorded as “binds”.
As for “unlabeled PGRN (from UniProt P28799 18-593) (ligand)”, the binding entry in test [2] and in test [3] was “binds” in each case.
